{"source": "patent US4816487A", "about": "“1-(2-hydroxyaryl)-alkane-1-on-oximes-procedure of preparation and use in pharmaceuticals” (Humboldt-Universitaet zu Berlin, priority 1985, dated 1989)", "biological_target": "T1, lipoxygenase from rabbit reticulocytes (Oryctolagus cuniculus, UniProt P12530)", "T1 construct": "Lipoxygenase from rabbit reticulocytes was obtained in electrophoretically and immunologically pure form; from tissue; host or cells: rabbit reticulocytes", "T1 sequence (P12530 1-663)": "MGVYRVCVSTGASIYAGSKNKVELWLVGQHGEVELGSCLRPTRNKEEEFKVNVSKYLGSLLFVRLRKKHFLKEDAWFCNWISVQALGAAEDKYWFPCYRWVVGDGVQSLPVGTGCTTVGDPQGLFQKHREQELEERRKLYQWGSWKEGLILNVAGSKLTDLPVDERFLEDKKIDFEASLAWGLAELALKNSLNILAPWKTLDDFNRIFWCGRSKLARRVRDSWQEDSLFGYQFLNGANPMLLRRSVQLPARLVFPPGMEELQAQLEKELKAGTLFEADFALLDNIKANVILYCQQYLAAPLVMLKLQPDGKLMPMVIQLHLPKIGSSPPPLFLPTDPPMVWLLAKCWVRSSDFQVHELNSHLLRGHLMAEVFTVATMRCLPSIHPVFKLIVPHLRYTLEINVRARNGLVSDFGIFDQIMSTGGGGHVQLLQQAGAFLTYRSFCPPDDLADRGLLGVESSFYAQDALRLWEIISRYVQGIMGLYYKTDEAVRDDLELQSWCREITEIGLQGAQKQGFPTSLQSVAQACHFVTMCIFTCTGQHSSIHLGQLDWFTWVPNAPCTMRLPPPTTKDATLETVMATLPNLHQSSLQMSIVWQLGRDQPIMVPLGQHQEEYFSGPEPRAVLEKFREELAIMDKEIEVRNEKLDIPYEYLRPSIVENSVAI", "assay": "inhibition of activity of lipoxygenase from rabbit reticulocytes", "format": "biochemical", "conditions": "concentration not given", "protocol": "Persuasive evidence to inhibition of lipoxygenase was produced by a suitable animal lipoxygenase which had been isolated from rabbit reticulocytes, using a method by Rapoport and coworkers /S. M. Rapoport et al., Eur. J. Biochem. 96, 545 (1979)/. A final concentration of 1 mM of most of the compounds, according to this invention, produced inhibition of 90 percent or more (cf. Example 20). Significant inhibition was even recordable from a final concentration of 0.1 mM of some of the compounds, according to this invention. Substance concentrations were varied to determine the titration curves of inhibition and from these the half-inhibition concentrations (I50 -values). […]\nLipoxygenase from rabbit reticulocytes was obtained in electrophoretically and immunologically pure form by means of the method described in the literature /S. M. Rapoport et al., Eur. J. Biochem. 96, 545 (1979)/. Lipoxygenase activity was determined at 25° C. by amperometric measurement of oxygen consumption by means of a Clark electrode in the following system: 0.1M potassium phosphate, pH 7.4, with 0.2-per-cent sodium cholate and 0.53 mM linoleic acid. […] The titration curve of inhibition and, consequently, the concentrations required for inhibition by the order of 50 per cent were determined by variation of active substance concentrations. […]", "note": "For at least one compound, name, drawing or mass did not settle the structure."}
{"smiles": "NC1=NN(c2cccc(C(F)(F)F)c2)CC1", "note": "[3-amino-1-(3-trifluoromethylphenyl)-pyrazoline]", "values": [{"measurement": "inhibition of rabbit reticulocyte lipoxygenase by known lipoxygenase inhibitors", "value": "inhibited with high effectiveness"}]}
{"smiles": "CCCOC(=O)c1cc(O)c(O)c(O)c1", "note": "[propylgallate]", "values": [{"measurement": "inhibition of rabbit reticulocyte lipoxygenase by known lipoxygenase inhibitors", "value": "inhibited with high effectiveness"}]}
